# Library screen at single concentrations

The filed quantity is “Percent Effect” (%). The record does not define 0% and 100%; most values in the screen are far below 50% and negative numbers occur (in some assays of this library far below -100). This is an unselected part of the compounds tested. Two or more numbers in one place are separate tests of the same structure; such repeats can differ widely.

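Cell assay of Leishmania donovani living inside macrophages; the read-out is not stated. Tested at 30 µM. The record gives no direction; compounds that gave an IC50 in retests scored well above the rest, so higher reads as stronger inhibition. Size under these conditions: about 69,000 compounds, about 1,000 of them at 50% or above in at least one test.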

structure	effect
O=C(NCCCN1CCOCC1)c1ccn(COc2ccccc2)n1	12.7%
Cc1ccc(-n2cc(C(=O)NCc3nnc4n3CCCCC4)nn2)cc1	-6.836%
Cc1ccc(CC(=O)N2C[C@@H](CN(C)C)[C@@H](CO)C2)cc1C	-11.65%
Cc1nc(-c2ccccc2)cc2nn(CC(N)=O)c(=O)n12	8.845%
CC(C)N1CC(C(=O)NCc2ccnc(-n3cccn3)c2)CC1=O (stereo not given)	2.307%
CCCn1nc(C(=O)N2CCCC2c2noc(C)n2)ccc1=O (stereo not given)	14.47%
[H][C@@]12CCC(=O)N(CCc3c[nH]cn3)[C@]1([H])CCN(Cc1cnn(C)c1)C2	21.06%
Cc1cc(C(=O)NCc2cccs2)c2c(C3CCCN3)noc2n1 (stereo not given)	7.57%
CCn1cc(CN(C)S(=O)(=O)c2ccccc2)cn1	11.15%
O=C(NC[C@H]1CCCN1)c1cc(COc2cccc(C(F)(F)F)c2)[nH]n1	-4.864%
CC(=O)N[C@@H]1CN(Cc2ccccc2-n2cccn2)C[C@H]1C(C)C	16.33%
Cc1cnc(CCN(C)C(=O)c2ccc(O)nc2C)s1	21.65%
NC(=O)CN(CC1CCOC1)C1CC1 (stereo not given)	-1.001%
CCO[C@H]1C[C@@H](O)C12CCN(S(=O)(=O)c1ccccc1OC)CC2	-7.31%
COCCN(Cc1ccc(C)cc1)CC1CCOC1 (stereo not given)	11.83%
CCCn1ncc2c(C(=O)NC(C)Cn3cccn3)cc(C3CC3)nc21 (stereo not given)	-3.227%
CC(C)C(=O)N(C)CC(=O)Nc1ccc(Br)cn1	2.011%
COc1ncccc1C(=O)N1CC(c2nc(-c3cccs3)no2)C1	-15.46%
CC(C)Nc1ncc(CN2C[C@@H](CN3CCC(O)CC3)[C@@H](CO)C2)cn1	31.31%
Cc1[nH]ccc1C(=O)N1CCOCC12CCCC2	20.4%
Cc1cc2n(n1)CC(CNCCc1cnn(C)c1)CN2 (stereo not given)	-23.49%
c1ccc(-c2cnc(CN3CCn4c(nnc4C4CC4)C3)o2)cc1	-9.584%
Cc1nc(N2CCC3(CCCNC3=O)C2)nc2c1CCCC2 (stereo not given)	-76.99%
Cc1nc(CNc2nc(-c3ccco3)nc3c2CCNCC3)n[nH]1	-7.985%
Fc1ccc(Br)c(NCc2nnsc2Cl)c1	29.05%
Cc1nc(C(=O)N2CCC(Nc3cccnn3)CC2)cs1	3.884%
[H][C@@]12CCCO[C@]1([H])[C@H](N(C)C)CN(C(=O)c1c(C)noc1C)C2	20.07% & 10.16%
[H][C@@]12CCN(C(=O)COC)CC[C@]1(C(=O)Nc1ccccc1)CCN2C	13.17%
COCCOCC(=O)N1CCC(c2ccccc2F)C1 (stereo not given)	24.14%
O=C(CC1Cn2ncnc2NC1=O)Nc1cccc(C(F)(F)F)c1 (stereo not given)	11.42%
CCc1c(C)nc2cc(C3CCN(CCc4ccccc4)C3)nn2c1O (stereo not given)	-22.1%
CCc1nc(CN2CCN(C(=O)C3(C#N)CCCC3)CC2)cs1	-27.39%
O=C(N1CCCC1)N1CCc2onc(COc3cccnc3)c2C1.O=C(O)C(F)(F)F	0.9186%
Cc1ncccc1CNC1CCCN(Cc2noc(C3CC3)n2)C1 (stereo not given)	51.55%
Cc1cc(Nc2nc(C)cc(C)n2)cc(C2CCCN2)n1 (stereo not given)	14.9%
CN(C)C(=O)c1cccnc1-c1ccc2c(c1)OCCO2	16.15%
CC(=O)c1ccc(-n2ccc3nc(N4CCCC4)ncc3c2=O)cc1	-7.011%
COc1ccc2c(ccn2CCC(=O)Nc2ccc(C(N)=O)cc2)c1	-27.75%
[H][C@@]12CCN(C3CCCC3)C[C@@]1([H])[C@H](C(=O)NC1CC1)CCO2	24.66%
CCN(Cc1cccc(-c2ccncc2)c1)S(N)(=O)=O	-30.64%
Cc1ccc(CN2Cc3c(C(=O)N4CCN(C)CC4)nn(C)c3C2)s1.O=C(O)C(F)(F)F.O=C(O)C(F)(F)F.O=C(O)C(F)(F)F	19.53%
CC(C)C1CN(c2cnccn2)CCC(=O)N1Cc1ccc(F)cc1 (stereo not given)	-41.7%
CC(=O)N1CCC2(CCN(Cc3cccc(F)c3)CC2)CC1.O=C(O)C(F)(F)F	20%
Cc1ccc(C(=O)N(C)Cc2ccc3c(c2)OCCO3)c(=O)[nH]1	23.27%
Cc1ccc(-c2nnc(CN3CC[C@H](CO)[C@@H](O)C3)o2)n1C	-10.87%
Cc1cc(C)c(CNC(=O)N2CCCC2c2cccn2C)c(=O)[nH]1 (stereo not given)	13.7%
Cc1cncc(C(=O)N2Cc3ccccc3C3(CCN(C)CC3)C2)c1	-1.596%
COc1ccc(CNCc2c(C)nc3sc(C)cn23)c(OC)c1OC	20.28%
Cc1cc(-n2cncn2)ccc1C(=O)Nc1ccc(N2CCCC2)cn1	9.583%
c1ccc(C2CCCCN2Cc2nc(-c3cnccn3)no2)nc1 (stereo not given)	14.61%
Cc1ccc(CNCC2Cn3nncc3CO2)s1 (stereo not given)	31.61%
COCC1CN(C(=O)Cc2cccc(F)c2)Cc2ccnn2C1.O=C(O)C(F)(F)F (stereo not given)	20.19%
O=C(O)C(F)(F)F.[H][C@@]12CCN(Cc3ccc4ccccc4n3)[C@]1([H])CC[C@@H](C(=O)NC(C)C)O2	23.43%
CC(C)N1CCCC(Cc2nccnc2Cl)CC1 (stereo not given)	30.41%
Cc1c[nH]c(C2CCCN(Cc3cccc(C(=O)O)c3)C2)n1 (stereo not given)	17.67%
Cc1cc(CN2CCC(CNC(=O)CN3CCCCCC3)C2)[nH]n1 (stereo not given)	3.142%
Cc1nccc(CNC(=O)N(CCCO)C2CCc3ccccc32)n1 (stereo not given)	16.26%
COCCN1CCCN(C(=O)NC(C)Cn2ccnc2)CC1 (stereo not given)	14.07%
CC(Cc1ccccc1F)C(=O)Nc1cccc(OCC(N)=O)c1 (stereo not given)	14.49%
CN1CC(=O)N(c2cccc(F)c2)CC12CCN(Cc1ccncc1)C2.O=C(O)C(F)(F)F.O=C(O)C(F)(F)F (stereo not given)	3.529% & -9.67%
Cc1cnn(CC2CN(Cc3nc(-c4ccco4)no3)CCO2)c1 (stereo not given)	25.31%
Cc1ncccc1C(=O)Nc1cccc(OCC(F)F)n1	14.45%
[H][C@]12CC[C@]([H])(CN(C(=O)CCS(C)(=O)=O)C1)N(Cc1ccccc1)C2=O	2.485%
COCCC(=O)N(C)Cc1nc(C(F)(F)F)cs1	4.244%
CC(C)C(=O)NC1CCCN(C(=O)c2cc3ccccc3cc2O)C1 (stereo not given)	26.15%
CC1CCc2nc(O)c(C(=O)NCc3ccncc3)cc2C1 (stereo not given)	-14.79%
COc1ccc(OC)c(C(=O)Nc2cccnc2-n2cncn2)c1	1.014%
COc1ccc2c(c1)CN(CC(=O)NC1CCCC1)CC2	-7.68%
N#CCCN(CC1CCOC1)Cn1ccc(-c2ccsc2)n1 (stereo not given)	16.14%
CCOCC(=O)Nc1cc(C)cnc1OC	16.88%
Cc1cccc(OCCN2CCCC(c3cc(C(N)=O)[nH]n3)C2)c1 (stereo not given)	26.03%
COc1ccc2cccc(CC(=O)NCc3n[nH]c(=O)[nH]3)c2c1	17.61%
O=C(O)C(F)(F)F.O=C(O)C(F)(F)F.[H][C@@]12CCN(c3nnc(C)s3)[C@]1([H])CC[C@@H](C(=O)NCc1ccccn1)O2	-0.2312%
Cc1cccc(C)c1OCCCN1CCC(n2cncn2)CC1	-4.689%
O=S(=O)(Cc1c(F)cccc1F)NCCOc1cccnc1	11.24%
CC(C#N)(NC(=O)Cn1cc(I)cn1)C1CC1 (stereo not given)	30.05%
CCC(C)(C)NCc1nc(C(C)(C)NC(=O)OC(C)(C)C)no1	-6.037%
CCc1nnsc1C(=O)N1CCOC(c2nc(C)n[nH]2)C1 (stereo not given)	-3.88%
O=C(O)C(F)(F)F.[H][C@]12CCN(Cc3ccc4c(c3)OCO4)[C@@]1([H])C[C@H](C(=O)N(C)C)O2	36.49%
Fc1cnc(N2CCCn3c(nnc3Cn3ccnc3)C2)nc1.O=C(O)C(F)(F)F	-23.84%
O=C(O)C(F)(F)F.[H][C@]12CCN(C(=O)c3cc[nH]n3)CC[C@@]1([H])S(=O)(=O)N(Cc1ccccc1)C2	5.501% & 11.31%
[H][C@]12CCN(C(=O)c3ccc[nH]3)[C@@]1([H])CCC(=O)N2CCN1CCOCC1	-8.883%
CCc1cc(N2CCC(n3cc(C(=O)NC4CC4)nn3)CC2)ncn1	2.999%
O=C(Nc1ccccc1C(=O)N1CCCC1)NC1CCOCC1	9.007%
CC(C)CN(C(=O)COc1ccc(C(N)=O)cc1)C1CCN(C)CC1	14.38%
COCC(=O)N[C@H]1C[C@@H](Cc2cc(CN3CCCCC3)on2)C1(C)C	3.202%
[H][C@@]12CCCC[C@@]1([H])CN(Cc1nc(-c3ccsc3)oc1C)CC2	-24.09%
O=C(O)c1cc(-c2ccccc2)ns1	-10.58%
[H][C@@]12CN(C(=O)C3CCOC3)C[C@]1([H])C(=O)N(Cc1cccc(F)c1)C2 (stereo not given in full)	43.95%
CO[C@@H]1CCN(c2ncc(F)cn2)[C@H]1Cc1cnn(C)c1	4.464%
O=C(O)C(F)(F)F.[H][C@@]12C[C@@H](Oc3ccc(C)cc3)CN1CCN(C(=O)c1cnccn1)C2	4.165%
O=C(NCC(O)c1ccc(Cl)c(F)c1)NC1CC=CC1 (stereo not given)	7.892%
Cn1cnnc1C1CCCN(C(=O)c2cc(Cl)c(Cl)n2C)C1 (stereo not given)	16.78%
CN1C(=O)CCC12CCCN(Cc1nccs1)C2.O=C(O)C(F)(F)F (stereo not given)	-10.66%
CCCc1nnc(NCCc2noc(C3CCC3)n2)o1	22.99%

For reference, 9 entries once more:

structure	effect
Cc1nc(C(=O)N2CCC(Nc3cccnn3)CC2)cs1	3.884%
CCCc1nnc(NCCc2noc(C3CCC3)n2)o1	22.99%
Cc1ccc(CN2Cc3c(C(=O)N4CCN(C)CC4)nn(C)c3C2)s1.O=C(O)C(F)(F)F.O=C(O)C(F)(F)F.O=C(O)C(F)(F)F	19.53%
Cn1cnnc1C1CCCN(C(=O)c2cc(Cl)c(Cl)n2C)C1 (stereo not given)	16.78%
Cc1nccc(CNC(=O)N(CCCO)C2CCc3ccccc32)n1 (stereo not given)	16.26%
COc1ccc2c(c1)CN(CC(=O)NC1CCCC1)CC2	-7.68%
CCn1cc(CN(C)S(=O)(=O)c2ccccc2)cn1	11.15%
COCC1CN(C(=O)Cc2cccc(F)c2)Cc2ccnn2C1.O=C(O)C(F)(F)F (stereo not given)	20.19%
CN(C)C(=O)c1cccnc1-c1ccc2c(c1)OCCO2	16.15%

Data taken from ChEMBL document CHEMBL3988442, “University of Dundee, Small-Polar-MMV Screening Library” (2021).